PubChem BioAssay AID504786 | Drosophila RNAi Screening Center | 2011

Purpose: 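Knock-downs reducing HIF reporter induction by the iron chelator DFO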 (primary screen)
Cells: Drosophila S2 cells with a stable HIF luciferase reporter
Reagent: long dsRNA against Drosophila genes, about 0.2 µg dsRNA per well of a 384-well plate
Timing: three days of knock-down, then 20 h of DFO before reading
Treatment: desferrioxamine (DFO) at 100 µM, an iron chelator that mimics hypoxia, for 20 h
Detection: 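HIF reporter luminescence in cells given 100 µM DFO for 20 h, using the mouse ldh-a hypoxia-response element, scored as per-plate z-scores; higher means greater loss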
Direction: z-score: higher = stronger loss of HIF reporter signal
In all, the deposit lists about 21,000 reagents; this is a random part of those that have a named target and a result. 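Primary screen; positive scores mean lost reporter signal, so the sign may be inverted from the usual convention.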 Not all columns of the deposit are shown.

{"target gene":"CG33914","amplicon":"DRSC05033","z-score, replicate 1":-0.1}
{"target gene":"CG18095","amplicon":"DRSC01948","z-score, replicate 1":-0.2}
{"target gene":"CG17544","amplicon":"DRSC02624","z-score, replicate 1":-0.3}
{"target gene":"CG5787","amplicon":"DRSC02895","z-score, replicate 1":-0.1}
{"target gene":"pnr","amplicon":"DRSC17027","z-score, replicate 1":-0.3}
{"target gene":"tilB","amplicon":"DRSC20634","z-score, replicate 1":-0.5}
{"target gene":"Nost","amplicon":"DRSC18037","z-score, replicate 1":-0.3}
{"target gene":"Nost","amplicon":"DRSC18338","z-score, replicate 1":-0.3}
{"target gene":"CG31463","amplicon":"DRSC14346","z-score, replicate 1":-0.1}
{"target gene":"CG3104","amplicon":"DRSC00567","z-score, replicate 1":0.1}

Targets listed so far whose gene name begins with C or c:
{"target gene":"CG33914","amplicon":"DRSC05033","z-score, replicate 1":-0.1}
{"target gene":"CG18095","amplicon":"DRSC01948","z-score, replicate 1":-0.2}
{"target gene":"CG17544","amplicon":"DRSC02624","z-score, replicate 1":-0.3}
{"target gene":"CG5787","amplicon":"DRSC02895","z-score, replicate 1":-0.1}
{"target gene":"CG31463","amplicon":"DRSC14346","z-score, replicate 1":-0.1}
{"target gene":"CG3104","amplicon":"DRSC00567","z-score, replicate 1":0.1}

The listing continues:
{"target gene":"CG12376","amplicon":"DRSC06144","z-score, replicate 1":0}
{"target gene":"CG8630","amplicon":"DRSC16441","z-score, replicate 1":-0.7}
{"target gene":"Shrm","amplicon":"DRSC06437","z-score, replicate 1":0.7}
{"target gene":"Shrm","amplicon":"DRSC06438","z-score, replicate 1":-0.1}
{"target gene":"Shrm","amplicon":"DRSC07221","z-score, replicate 1":-0.2}
{"target gene":"CG16926","amplicon":"DRSC06637","z-score, replicate 1":-0.2}
{"target gene":"Hk","amplicon":"DRSC17638","z-score, replicate 1":0.7}
{"target gene":"Hk","amplicon":"DRSC18138","z-score, replicate 1":-0.2}
{"target gene":"Hk","amplicon":"DRSC18674","z-score, replicate 1":3.5}
{"target gene":"CG8388","amplicon":"DRSC07157","z-score, replicate 1":-0.2}
{"target gene":"Sec5","amplicon":"DRSC00714","z-score, replicate 1":-0.4}
{"target gene":"CG4393","amplicon":"DRSC15573","z-score, replicate 1":-0.4}
{"target gene":"mRpL3","amplicon":"DRSC20100","z-score, replicate 1":1.6}
{"target gene":"CG11722","amplicon":"DRSC14358","z-score, replicate 1":-0.4}
{"target gene":"CG18233","amplicon":"DRSC10308","z-score, replicate 1":-0.3}
{"target gene":"Gcn2","amplicon":"DRSC16678","z-score, replicate 1":-0.3}
{"target gene":"Pits","amplicon":"DRSC19385","z-score, replicate 1":0.5}
{"target gene":"Pits","amplicon":"DRSC19812","z-score, replicate 1":-0.3}
